These results are taken from PubChem BioAssay AID1347423 (Functional Genomics Laboratory (NCATS/FGL), 2020).

About 210 (0.4%) of roughly 52,000 sequences were called active.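 How the source made its calls: active means gene whose silencing raises cell survival under the drug, median off-target-corrected z-score across its silencing RNAs 2 or more; inactive means the rest.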 This is one part of the list.

This experiment in a line: Resistance to Poly (ADP-Ribose) Polymerase inhibitor: Gene Identification via Genome-wide siRNA Screen. The note with it: mouse BRCA2 R2336H ES cells, olaparib, CellTiter-Glo viability; active compounds read high. Summed up:
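Mouse BRCA2 R2336H ES cells were reverse-transfected with siRNA (20 nM final), treated at 48 h with 500 nM olaparib, and read by CellTiter-Glo after 72 h. Scores: MAD-based z per siRNA, median per gene, seed off-target correction.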
On the technique in general: ATP-based viability assays read luminescence as a measure of living cells.
With CCGUGGAUACUGCAUGUGATT against Neud4, the z-score is inactive: 0.458.

As for CCACUGAGUUCUUUCUACUTT against Olfr49, the z-score was inactive: -0.879.

Turning to GCCUUUCCUAGACUAUUACTT against Dyt1, the z-score is inactive: 0.577. For GGGUUCAAUAACCACAUCATT against BC017545, the z-score was inactive: 0.165. For GGAACAAAUCGCUCUGUUGTT against Olfr1314 the value was inactive: 0.647; for “GGCGCAACGAAUAAAAAUATT against D630023F18Rik”, inactive: 0.559.

CGAAAACAGUACGAUGCUUTT against Dnajb11: the z-score is inactive: -0.663. “GGCCUAUAUUGAUGAUUUUTT against 4930503L19Rik”: the z-score is inactive: 0.037.

With “GGAUAAAUGGUACAUUCAGTT against 2010305A19Rik”, the z-score was inactive: -1.27. For CCAGUGUUUGACUUGACCATT against Dpysl3 the value was inactive: 0.23. For “GCCAUGUACGCAAAAUAGUTT against 2600001B17Rik” the value was inactive: 1.19. For CCAUCAUACGAUGAUCUUATT against Pmaip1 the value was inactive: -0.0704; for “GGGCAGUUUUCUCUAUAGGTT against 1110034O07Rik”, inactive: 0.236; for “CGAUGAUCCUUACCUCAUATT against 2810422B04Rik”, inactive: -1.05. For CGAUUACUGAACACUAUAUTT against Metap1, the z-score was inactive: 0.998.

For “GGAAGUGCCACCUGUAUUATT against A630005A06Rik”, the z-score is inactive: -0.934. “GGAAAAGGAGGAGAGUUAUTT against 4921504I05Rik”: the z-score was inactive: 0.668. “GCCAAGCAUUGGAACCAUGTT against 1700112C13Rik”: the z-score is inactive: -0.0624. With GCAUCACUUGGGUGGACAATT against Olfr1280, the z-score was inactive: 2.21. For GGAAGAUCAAAAGGUCAUUTT against Mybl2 the value was inactive: 1.29. For the sequence GGCAAACCAGGAAAAGGUCTT against Abhd2, the z-score is inactive: -0.623. Consider GGCUUCAUGAUGUCCUGCATT against Cdk5, for which the z-score is inactive: -1.36. For the sequence CCUUCUAUGGCCUUCUGAATT against Hapln4, the z-score is inactive: -0.0112. GGUCAACAACGAAUCCUUUTT against Rho: the z-score is inactive: 0.0505. Regarding GGAAUUAACAUCUUCUUACTT against Muc4, the z-score was inactive: 0.154. For GGAUCCAGAACUAAAAAUCTT against Pcdhga2 the value was inactive: 0.011; for GGUUUGCAUCUUCUUAUUCTT against Myd88, inactive: 2.91; for CCCUCUAGGUUCUUUAGCCTT against Sox7, inactive: -0.00507. With “CCAUUGAGGUAAUGUUUGATT against 0610042C05Rik”, the z-score was inactive: 0.183. For GGCAAGAAUAUGAAAAGCUTT against Hmmr the value was inactive: -0.352. For GGUAUUCCAAUAACUGUACTT against Fip1l1 the value was inactive: -0.238. For CCUCUACGAUGACUGGAUGTT against Sh3bp1 the value was inactive: 0.552. As for GGUUUUUGAACAAAGGAGATT against Slc11a2, the z-score was inactive: 0.0416. For “GGUGUGGUGGACUAAAUAUTT against 2310001H12Rik” the value was inactive: -1.35. For CCGUAGACUCGGUGAAGCUTT against Prosc the value was inactive: 0.147.

Regarding GGAUGCCAGAAGAAUAUUCTT against Pnlip, the z-score is inactive: 0.789.

GGCGGAAGUGUUAGACAUGTT against Art3: the z-score is inactive: 1.04.

With GGCCAGAAUAUCAUCGUCATT against Rbks, the z-score is inactive: -0.445. For CCACGAGAUGGAAUAUCGCTT against Cyyr1, the z-score is inactive: 0.324.

On to UCAGUGUGCUGUUUCUUUUTT against Olfr1359, for which the z-score is inactive: 0.64. Turning to “GGACUUUGAGACUCAUCCGTT against 6330442E10Rik”, the z-score was inactive: -0.244. For “CCUAAAGCAUUGUUCAUAGTT against 5330420D20Rik” the value was inactive: -0.303; for CCGAUUCAGGUAUUGCACGTT against Prkra, inactive: -0.594; for GGAAGCCCACUACAACAAUTT against Krt1-19, inactive: 0.472. In the case of GGAACAUCAGGUGCAUGUGTT against Pkd1, the z-score is inactive: 1.9. For GGAGAAAGCACUCAAUUUGTT against Dlgap4 the value was inactive: 1.95. For GGAAACAGCAAUCAAAUACTT against Dhx40 the value was inactive: -0.726; for “CCUGUGCCUCGUUUUAUUUTT against 4930430E16Rik”, inactive: 0.737; for GGCUACCAUGGACACAUCATT against Magea7, inactive: -1.72. In the case of GCUGUCCAGACAAACACUATT against Tnfrsf7, the z-score was inactive: -1.36. Turning to “GGAUCCGCAUCUACAAGCUTT against 1700016K19Rik”, the z-score was inactive: 0.716. For “GCAAUGUGUGGUAAGUAAATT against 6720487G11Rik” the value was inactive: -1.21; for GGGCAAACCAGUUAGCAGATT against Sca2, inactive: 0.262; for GCCAUUCGCACAUACCAGATT against Sec8l1, inactive: -0.252. For GAUGUUUGUUUUCAGUGCCTT against Olfr1330 the value was inactive: 0.366. For GGAUCCUUCGCUUUUAUCGTT against Nox1 the value was inactive: 0.428; for GCACUACUGCCCAUGAUUGTT against Agrn, inactive: -1.1; for “GGGAUUGAACUUAGGUUUGTT against 6330512M04Rik”, inactive: -0.512. For the sequence “GGAGGAGAUGAUAAAGAUUTT against 3930401K13Rik”, the z-score is inactive: 1.45. For GGAAAGGACCACCUAAGUUTT against Pde6g the value was active: -2.22. As to GGACUACCAUCGACCUUCATT against Nek2, the z-score is inactive: -0.858. Regarding GGCUAAAUCAAAGUUAUGATT against Speer4f, the z-score is inactive: 0.859.

Turning to GCUGCUACGUGUUCAAGGUTT against Ctss, the z-score was inactive: -0.0462. Regarding GGAAUGCUGAAGUAAAAAATT against Olfr1259, the z-score is inactive: 0.47. For GGACCUCCUCCCAAAGAUATT against Snrpb the value was inactive: -2.56. For GCUCUACCGUUAAGUUAUUTT against Eif4el3 the value was inactive: -0.961; for GCCCUUUAUAUGACUUGAGTT against Kcnj2, inactive: 0.721; for GGGCAUUGGUGACUUUGAATT against BC030867, inactive: -1.6.

Turning to GGAGAUCAAGCCGCACAUGTT against Ccnd3, the z-score is inactive: 0.352. For GCUACGUGAGAAUUCCGCCTT against Cutl1 the value was inactive: 0.298. For GGAACUCUGCCAAAGCUGUTT against Dffa the value was inactive: 0.409. For GCCUAUGCUCAACUUCUCGTT against Thap4, the z-score was inactive: -1.94. Regarding CCGUCUGAUAGCAAUCCGATT against Olfr632, the z-score is inactive: 0.895. For GGCAGUAUCCUUAUGCAUGTT against Tebp the value was inactive: 0.693; for “GGAGAAGAGUCAAGAGCUCTT against 3110035E14Rik”, inactive: -0.416; for “GGAGCUGGUGCUGAAGAACTT against 1810031K17Rik”, inactive: -2.29. For “GGACGUACACAUUUACAAATT against 2310038H17Rik” the value was inactive: -0.0445. For GGGUCUGAAUGACAGCAUCTT against Cd53 the value was inactive: 0.466; for CGAGCAGACCUCUAUACAGTT against Nit2, inactive: -0.565; for GCCUAACUGCCCAGAAUCUTT against Psd4, inactive: 0.846.

As for CGGAUGAAUUUGAUGGUCUTT against Ctbp2, the z-score is inactive: -0.0292. Consider “GGCGAGAGAGAUGAGUAAATT against 2010002N04Rik”, for which the z-score is inactive: -2.22.

With GGAAGUAAAGAGGAUCUCATT against AI427515, the z-score is inactive: -1.15.

Take “GCAGCAUUUUAUCAACCAGTT against C030046I01Rik”: the z-score is inactive: -0.792.

For GGCUUCACCAAAUGUGCAGTT against Mrpl50, the z-score is inactive: -0.674. As for CCUUCAAUGAGAGCUUUAGTT against Olfr1157, the z-score was inactive: -1.52. As to CGGUCCUUGAAAGAGAUGGTT against Prkcsh, the z-score was inactive: -0.549.

Take “GGAGAGGUGUAAUGUAUUCTT against 4921513O04”: the z-score was inactive: 0.0363. For the sequence CCUUAGAGAAAAUUAUUGCTT against Hgf, the z-score was inactive: 0.1. For the sequence CGAGGAGAUAUCCAUCAAUTT against Nbr1, the z-score was inactive: 1.9. For GGCUGAACAGCACCUCAUGTT against Rnf30 the value was inactive: -1.3; for GGGAAGAGCCCUAAUAUUATT against Aldh1a2, inactive: -0.0979; for GGAGAAAACUCUAAAUAACTT against Klra2, inactive: 0.536. For GCGGCAUCUAAAGCUCCACTT against Cdh1 the value was inactive: -1.31; for GCAUCCUACGCAUUAAAUCTT against Olfr146, inactive: -0.12. For GGAAGUAGCAACAAGCUACTT against Brd2 the value was inactive: 0.0726; for GGUGGAAGCAAUUUUAAAUTT against Trpc7, inactive: 1.54. Regarding “GGUUCACCAUCAAACCCUUTT against 1300012G16Rik”, the z-score was inactive: -0.368. Consider “GGAAGUGUCAGGAUAUAUUTT against 4930428O21Rik”, for which the z-score was inactive: -1.16.

With GGAGUUUGUAUCAAACUUATT against Zcchc8, the z-score was inactive: 0.358. For GCAUGAAUCCAGCUCGAUCTT against Aqp4 the value was inactive: 1.79. For “GGAUGGACAAAAUACUUAATT against B230354K17Rik” the value was inactive: 0.638. With “GGUCCCUCUACCCAAAGUUTT against 5730427N09Rik”, the z-score is inactive: -1.17.
